# Results: article PMC11102861
# Sequences of proteins named here, by UniProt entry; tags and fusion partners are left off.
# UniProt A5YKK6: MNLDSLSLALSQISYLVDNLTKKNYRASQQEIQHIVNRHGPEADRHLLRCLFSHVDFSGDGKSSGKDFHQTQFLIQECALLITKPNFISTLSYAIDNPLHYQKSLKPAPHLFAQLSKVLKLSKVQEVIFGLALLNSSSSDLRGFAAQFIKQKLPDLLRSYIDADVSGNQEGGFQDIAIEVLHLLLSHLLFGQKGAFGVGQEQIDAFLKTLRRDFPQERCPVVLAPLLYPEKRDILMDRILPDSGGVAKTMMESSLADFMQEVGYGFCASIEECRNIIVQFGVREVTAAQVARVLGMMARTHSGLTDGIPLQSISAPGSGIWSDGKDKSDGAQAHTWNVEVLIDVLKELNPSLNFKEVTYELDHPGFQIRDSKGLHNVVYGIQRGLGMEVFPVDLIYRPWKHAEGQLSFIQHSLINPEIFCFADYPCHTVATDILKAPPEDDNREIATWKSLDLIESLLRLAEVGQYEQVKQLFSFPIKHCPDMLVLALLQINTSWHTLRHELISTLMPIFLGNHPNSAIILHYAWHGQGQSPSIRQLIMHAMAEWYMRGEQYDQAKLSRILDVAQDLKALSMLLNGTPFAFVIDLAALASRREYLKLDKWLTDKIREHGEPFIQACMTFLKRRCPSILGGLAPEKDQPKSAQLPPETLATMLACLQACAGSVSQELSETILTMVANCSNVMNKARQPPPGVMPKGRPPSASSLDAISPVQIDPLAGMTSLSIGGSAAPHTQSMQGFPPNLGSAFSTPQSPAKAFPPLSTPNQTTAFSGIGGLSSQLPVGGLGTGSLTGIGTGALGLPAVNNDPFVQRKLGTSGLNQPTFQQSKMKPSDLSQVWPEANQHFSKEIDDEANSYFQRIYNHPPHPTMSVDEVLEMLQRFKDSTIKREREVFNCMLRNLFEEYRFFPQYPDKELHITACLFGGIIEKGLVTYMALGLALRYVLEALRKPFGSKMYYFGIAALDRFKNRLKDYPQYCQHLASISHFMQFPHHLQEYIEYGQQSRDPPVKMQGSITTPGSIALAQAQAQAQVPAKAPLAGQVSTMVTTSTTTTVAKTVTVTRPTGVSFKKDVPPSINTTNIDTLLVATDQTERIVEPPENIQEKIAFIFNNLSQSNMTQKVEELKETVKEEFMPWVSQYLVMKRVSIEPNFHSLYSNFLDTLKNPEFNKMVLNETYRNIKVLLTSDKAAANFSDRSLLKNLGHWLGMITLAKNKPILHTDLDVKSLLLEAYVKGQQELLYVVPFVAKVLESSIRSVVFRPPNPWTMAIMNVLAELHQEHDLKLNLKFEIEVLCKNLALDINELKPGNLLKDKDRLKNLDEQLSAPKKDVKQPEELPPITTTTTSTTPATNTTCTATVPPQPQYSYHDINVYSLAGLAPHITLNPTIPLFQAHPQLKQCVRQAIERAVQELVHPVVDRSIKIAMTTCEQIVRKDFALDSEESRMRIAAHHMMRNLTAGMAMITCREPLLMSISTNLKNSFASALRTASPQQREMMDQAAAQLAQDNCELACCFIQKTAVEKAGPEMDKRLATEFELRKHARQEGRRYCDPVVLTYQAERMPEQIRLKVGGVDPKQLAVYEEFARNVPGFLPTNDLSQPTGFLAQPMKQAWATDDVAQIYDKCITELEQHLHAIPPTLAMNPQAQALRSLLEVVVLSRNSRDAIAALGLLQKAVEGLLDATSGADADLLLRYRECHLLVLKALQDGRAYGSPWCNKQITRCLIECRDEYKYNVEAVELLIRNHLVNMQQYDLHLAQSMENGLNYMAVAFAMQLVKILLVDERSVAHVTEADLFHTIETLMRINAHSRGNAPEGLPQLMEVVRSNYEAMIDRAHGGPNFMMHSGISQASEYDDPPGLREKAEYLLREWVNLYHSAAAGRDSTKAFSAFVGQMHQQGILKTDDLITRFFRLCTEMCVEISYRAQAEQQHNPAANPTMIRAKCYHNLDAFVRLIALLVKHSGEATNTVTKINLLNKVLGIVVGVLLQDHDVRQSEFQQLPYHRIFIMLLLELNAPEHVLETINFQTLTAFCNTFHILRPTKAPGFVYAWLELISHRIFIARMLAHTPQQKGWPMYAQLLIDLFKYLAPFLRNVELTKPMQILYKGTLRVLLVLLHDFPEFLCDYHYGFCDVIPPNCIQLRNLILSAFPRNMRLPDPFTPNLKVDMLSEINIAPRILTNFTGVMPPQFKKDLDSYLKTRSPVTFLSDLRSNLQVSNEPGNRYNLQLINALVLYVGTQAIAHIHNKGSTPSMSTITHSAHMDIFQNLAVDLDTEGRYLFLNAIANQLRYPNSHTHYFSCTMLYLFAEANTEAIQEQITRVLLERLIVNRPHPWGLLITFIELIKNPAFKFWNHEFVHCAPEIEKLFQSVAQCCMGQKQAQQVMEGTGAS
# UniProt Q9UIV1: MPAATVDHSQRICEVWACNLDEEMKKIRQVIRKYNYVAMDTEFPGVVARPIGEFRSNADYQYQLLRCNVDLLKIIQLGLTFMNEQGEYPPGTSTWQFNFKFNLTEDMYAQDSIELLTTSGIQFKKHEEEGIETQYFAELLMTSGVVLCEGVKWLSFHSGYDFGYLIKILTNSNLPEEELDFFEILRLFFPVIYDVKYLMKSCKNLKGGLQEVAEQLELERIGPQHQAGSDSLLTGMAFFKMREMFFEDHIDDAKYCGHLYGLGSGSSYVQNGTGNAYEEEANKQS
# UniProt Q9NZN8: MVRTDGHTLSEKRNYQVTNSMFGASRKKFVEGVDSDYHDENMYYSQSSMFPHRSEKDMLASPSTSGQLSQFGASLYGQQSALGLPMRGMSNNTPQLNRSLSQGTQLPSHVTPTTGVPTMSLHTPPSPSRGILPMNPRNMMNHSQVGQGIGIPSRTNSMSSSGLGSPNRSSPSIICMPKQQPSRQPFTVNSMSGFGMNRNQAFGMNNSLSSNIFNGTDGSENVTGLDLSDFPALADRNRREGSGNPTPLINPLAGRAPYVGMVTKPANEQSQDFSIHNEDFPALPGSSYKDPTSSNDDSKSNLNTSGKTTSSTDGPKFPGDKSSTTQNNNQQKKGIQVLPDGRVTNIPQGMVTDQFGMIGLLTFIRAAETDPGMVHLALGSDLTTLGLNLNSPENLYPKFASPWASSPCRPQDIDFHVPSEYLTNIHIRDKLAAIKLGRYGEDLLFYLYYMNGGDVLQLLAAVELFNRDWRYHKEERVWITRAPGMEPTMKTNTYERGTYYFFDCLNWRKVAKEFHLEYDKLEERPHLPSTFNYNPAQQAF
# UniProt O75175: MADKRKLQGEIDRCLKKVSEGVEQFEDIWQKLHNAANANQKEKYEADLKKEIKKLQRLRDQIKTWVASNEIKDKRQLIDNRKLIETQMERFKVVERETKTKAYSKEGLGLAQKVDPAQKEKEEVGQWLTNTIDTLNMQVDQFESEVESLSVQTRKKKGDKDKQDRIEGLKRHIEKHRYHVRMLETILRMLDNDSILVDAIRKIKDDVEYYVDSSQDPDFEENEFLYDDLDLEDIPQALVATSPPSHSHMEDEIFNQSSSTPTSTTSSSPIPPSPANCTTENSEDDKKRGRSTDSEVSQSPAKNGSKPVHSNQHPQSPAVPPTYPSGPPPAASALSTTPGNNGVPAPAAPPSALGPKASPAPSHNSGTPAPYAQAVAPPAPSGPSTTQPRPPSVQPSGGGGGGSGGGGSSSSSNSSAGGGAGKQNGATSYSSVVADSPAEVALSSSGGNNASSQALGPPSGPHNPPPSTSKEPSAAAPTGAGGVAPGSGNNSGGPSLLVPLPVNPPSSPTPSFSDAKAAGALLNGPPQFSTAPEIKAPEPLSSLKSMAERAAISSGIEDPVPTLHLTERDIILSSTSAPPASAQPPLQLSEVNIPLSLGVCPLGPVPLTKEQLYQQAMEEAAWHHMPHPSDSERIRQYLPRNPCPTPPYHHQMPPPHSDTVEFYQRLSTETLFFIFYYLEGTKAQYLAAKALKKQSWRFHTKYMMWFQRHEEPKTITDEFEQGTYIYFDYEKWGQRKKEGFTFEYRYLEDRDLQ
# UniProt Q9ULM6: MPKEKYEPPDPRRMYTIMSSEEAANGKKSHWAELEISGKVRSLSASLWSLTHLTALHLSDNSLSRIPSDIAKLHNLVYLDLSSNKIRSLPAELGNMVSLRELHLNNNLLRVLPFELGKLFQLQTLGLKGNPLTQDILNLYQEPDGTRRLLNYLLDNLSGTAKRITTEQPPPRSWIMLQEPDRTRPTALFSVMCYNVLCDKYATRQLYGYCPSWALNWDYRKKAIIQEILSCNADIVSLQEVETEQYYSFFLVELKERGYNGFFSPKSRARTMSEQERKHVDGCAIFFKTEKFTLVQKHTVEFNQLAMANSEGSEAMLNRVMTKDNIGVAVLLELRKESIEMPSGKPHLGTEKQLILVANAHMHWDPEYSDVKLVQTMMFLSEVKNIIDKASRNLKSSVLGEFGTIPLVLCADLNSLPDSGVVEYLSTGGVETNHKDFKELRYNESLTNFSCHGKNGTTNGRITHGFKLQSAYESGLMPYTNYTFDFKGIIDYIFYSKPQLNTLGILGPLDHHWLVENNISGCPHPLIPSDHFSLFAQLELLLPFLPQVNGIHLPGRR
# UniProt Q92600: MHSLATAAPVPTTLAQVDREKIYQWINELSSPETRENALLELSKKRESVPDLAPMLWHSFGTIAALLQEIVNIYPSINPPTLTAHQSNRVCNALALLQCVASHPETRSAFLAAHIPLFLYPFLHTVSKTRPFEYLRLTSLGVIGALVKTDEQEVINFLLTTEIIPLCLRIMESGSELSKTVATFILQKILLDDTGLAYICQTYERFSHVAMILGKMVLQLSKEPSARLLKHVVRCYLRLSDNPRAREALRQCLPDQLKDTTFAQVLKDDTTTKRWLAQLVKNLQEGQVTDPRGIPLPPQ
# These are yes or no findings as the source states them, for the method shown. Some results given as binding are weak or reduced against the parent protein; the word gives no strength.
# How the values were obtained:
# CNOT1 (human) = CNOT1 (human) (UniProt A5YKK6); assay: co-purification (affinity chromatography); four full-length proteins co-produced in baculovirus-infected Sf21 cells; heterotetrameric subcomplex purified by affinity chromatography; tagged subunit not stated
# CNOT7/CAF1 (human) = CNOT7/CAF1 (human) (UniProt Q9UIV1); assay: co-purification (chromatographic separation); heterodimeric subcomplexes produced in and purified from BL21 (DE3) Star E. coli
binding (CNOT1 (human)),binding (CNOT7/CAF1 (human)),Substance
binds,,CNOT2 (from UniProt Q9NZN8 1-540)
binds,,CNOT3 (from UniProt O75175 1-753)
,binds,CNOT6/CCR4a (from UniProt Q9ULM6 1-557) (enzyme)
binds,,CNOT9/CAF40 (from UniProt Q92600 1-299)
